Source: the supplement of paper PMC7666118
Some of the results follow.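 How the source made its calls: active = dose-dependent thermal stabilisation significant by F-test of dose-response against flat model at 10% FDR; inactive = not significant.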

Protein sequences, listed by entry. Tags and fused reporters are not part of them. Lines headed by an entry give the natural chain unless they say otherwise; changes in a name come on top.
UniProt Q8NEB9, whole entry: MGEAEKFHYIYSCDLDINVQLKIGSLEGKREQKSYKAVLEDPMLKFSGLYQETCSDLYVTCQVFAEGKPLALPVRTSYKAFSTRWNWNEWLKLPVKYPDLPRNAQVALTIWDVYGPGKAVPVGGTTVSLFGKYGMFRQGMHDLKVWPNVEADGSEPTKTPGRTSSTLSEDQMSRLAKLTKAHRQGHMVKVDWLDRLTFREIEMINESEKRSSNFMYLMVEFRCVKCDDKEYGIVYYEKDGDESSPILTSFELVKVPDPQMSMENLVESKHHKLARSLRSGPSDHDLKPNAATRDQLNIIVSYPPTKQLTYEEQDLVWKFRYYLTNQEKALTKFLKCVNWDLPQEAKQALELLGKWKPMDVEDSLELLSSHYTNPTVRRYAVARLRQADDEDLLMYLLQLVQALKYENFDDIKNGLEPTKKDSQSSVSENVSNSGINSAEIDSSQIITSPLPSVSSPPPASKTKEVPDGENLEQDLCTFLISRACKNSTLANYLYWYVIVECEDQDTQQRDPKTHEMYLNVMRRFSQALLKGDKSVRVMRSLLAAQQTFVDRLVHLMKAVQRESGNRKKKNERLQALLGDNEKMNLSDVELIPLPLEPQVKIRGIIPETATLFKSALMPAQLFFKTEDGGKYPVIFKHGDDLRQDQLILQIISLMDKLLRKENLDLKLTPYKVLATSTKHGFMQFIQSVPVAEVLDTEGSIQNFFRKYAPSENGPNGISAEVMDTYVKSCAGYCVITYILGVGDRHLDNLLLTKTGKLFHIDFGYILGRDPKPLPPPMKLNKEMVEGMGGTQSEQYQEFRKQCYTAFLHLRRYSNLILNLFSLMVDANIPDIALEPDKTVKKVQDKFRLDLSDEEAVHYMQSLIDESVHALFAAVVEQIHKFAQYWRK
UniProt Q99447: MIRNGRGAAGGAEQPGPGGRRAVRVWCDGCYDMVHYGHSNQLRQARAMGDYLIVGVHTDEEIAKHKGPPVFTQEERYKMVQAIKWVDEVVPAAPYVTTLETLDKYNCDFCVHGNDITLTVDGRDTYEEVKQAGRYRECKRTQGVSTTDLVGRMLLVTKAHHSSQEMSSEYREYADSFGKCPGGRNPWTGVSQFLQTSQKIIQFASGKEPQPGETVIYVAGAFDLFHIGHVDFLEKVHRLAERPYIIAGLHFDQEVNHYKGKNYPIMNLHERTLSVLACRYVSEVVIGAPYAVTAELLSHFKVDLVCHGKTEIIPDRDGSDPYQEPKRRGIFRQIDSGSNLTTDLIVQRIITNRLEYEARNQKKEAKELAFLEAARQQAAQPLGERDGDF
UniProt P07205: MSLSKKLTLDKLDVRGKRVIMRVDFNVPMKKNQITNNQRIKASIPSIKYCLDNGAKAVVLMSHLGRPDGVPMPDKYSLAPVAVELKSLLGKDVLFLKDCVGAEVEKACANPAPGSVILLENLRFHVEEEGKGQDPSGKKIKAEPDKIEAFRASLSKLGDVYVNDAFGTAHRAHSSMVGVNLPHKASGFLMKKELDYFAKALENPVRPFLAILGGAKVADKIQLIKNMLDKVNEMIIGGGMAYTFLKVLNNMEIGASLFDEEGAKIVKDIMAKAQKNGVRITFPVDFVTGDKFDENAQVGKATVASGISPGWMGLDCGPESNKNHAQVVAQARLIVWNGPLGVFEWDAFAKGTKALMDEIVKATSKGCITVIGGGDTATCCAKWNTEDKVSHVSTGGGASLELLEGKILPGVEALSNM
UniProt P55347: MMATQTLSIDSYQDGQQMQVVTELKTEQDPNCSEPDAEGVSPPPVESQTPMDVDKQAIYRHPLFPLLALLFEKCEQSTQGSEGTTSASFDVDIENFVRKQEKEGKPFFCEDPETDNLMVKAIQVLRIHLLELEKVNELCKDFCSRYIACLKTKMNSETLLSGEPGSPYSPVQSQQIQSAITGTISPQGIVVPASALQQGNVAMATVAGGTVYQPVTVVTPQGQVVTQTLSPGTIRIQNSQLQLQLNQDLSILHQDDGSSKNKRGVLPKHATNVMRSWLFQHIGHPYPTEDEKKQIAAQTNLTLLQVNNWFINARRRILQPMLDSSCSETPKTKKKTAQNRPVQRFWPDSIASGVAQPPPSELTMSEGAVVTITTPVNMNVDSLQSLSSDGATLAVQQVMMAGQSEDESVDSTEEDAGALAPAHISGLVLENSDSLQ
UniProt O60925, whole entry: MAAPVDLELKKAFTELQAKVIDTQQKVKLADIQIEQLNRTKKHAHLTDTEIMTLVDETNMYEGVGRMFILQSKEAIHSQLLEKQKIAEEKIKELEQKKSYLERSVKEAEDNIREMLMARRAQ
UniProt P62136, whole entry: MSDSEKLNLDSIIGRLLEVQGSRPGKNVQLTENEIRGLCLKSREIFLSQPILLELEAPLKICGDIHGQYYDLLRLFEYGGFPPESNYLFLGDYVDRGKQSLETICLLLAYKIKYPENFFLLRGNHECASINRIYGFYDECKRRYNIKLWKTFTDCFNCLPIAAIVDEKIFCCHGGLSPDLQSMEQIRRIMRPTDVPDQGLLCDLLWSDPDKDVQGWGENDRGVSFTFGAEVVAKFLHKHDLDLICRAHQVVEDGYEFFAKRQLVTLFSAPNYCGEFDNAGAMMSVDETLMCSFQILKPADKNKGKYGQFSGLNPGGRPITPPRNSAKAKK
UniProt Q8TF01: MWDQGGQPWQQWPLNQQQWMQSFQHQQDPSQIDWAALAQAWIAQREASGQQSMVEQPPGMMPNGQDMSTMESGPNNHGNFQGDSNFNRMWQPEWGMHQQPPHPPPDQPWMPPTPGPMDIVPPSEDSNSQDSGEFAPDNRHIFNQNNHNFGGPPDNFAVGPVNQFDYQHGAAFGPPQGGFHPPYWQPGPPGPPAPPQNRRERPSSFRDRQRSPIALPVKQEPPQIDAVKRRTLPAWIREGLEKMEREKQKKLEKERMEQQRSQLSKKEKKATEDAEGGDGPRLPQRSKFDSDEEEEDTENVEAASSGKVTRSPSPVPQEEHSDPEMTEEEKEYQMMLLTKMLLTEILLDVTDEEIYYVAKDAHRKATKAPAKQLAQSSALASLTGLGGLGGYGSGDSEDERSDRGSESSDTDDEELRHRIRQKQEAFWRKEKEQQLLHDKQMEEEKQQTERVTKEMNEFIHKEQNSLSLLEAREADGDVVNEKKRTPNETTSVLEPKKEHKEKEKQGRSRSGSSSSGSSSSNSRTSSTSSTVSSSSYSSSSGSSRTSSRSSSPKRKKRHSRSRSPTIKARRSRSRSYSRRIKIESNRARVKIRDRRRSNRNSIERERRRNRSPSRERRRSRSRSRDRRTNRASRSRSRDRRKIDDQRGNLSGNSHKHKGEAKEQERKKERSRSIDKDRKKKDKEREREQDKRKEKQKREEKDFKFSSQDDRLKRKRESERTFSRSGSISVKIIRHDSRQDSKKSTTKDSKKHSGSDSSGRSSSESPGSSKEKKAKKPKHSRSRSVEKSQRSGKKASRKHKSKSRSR
UniProt Q9UBV8: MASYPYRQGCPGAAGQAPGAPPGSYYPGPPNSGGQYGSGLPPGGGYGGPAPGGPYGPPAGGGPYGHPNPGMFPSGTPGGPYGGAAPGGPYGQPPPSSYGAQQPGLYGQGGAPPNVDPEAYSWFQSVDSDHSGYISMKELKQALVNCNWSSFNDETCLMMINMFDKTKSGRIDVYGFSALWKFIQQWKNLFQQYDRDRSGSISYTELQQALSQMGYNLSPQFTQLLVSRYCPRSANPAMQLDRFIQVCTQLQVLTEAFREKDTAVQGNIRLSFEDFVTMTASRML
UniProt O14974: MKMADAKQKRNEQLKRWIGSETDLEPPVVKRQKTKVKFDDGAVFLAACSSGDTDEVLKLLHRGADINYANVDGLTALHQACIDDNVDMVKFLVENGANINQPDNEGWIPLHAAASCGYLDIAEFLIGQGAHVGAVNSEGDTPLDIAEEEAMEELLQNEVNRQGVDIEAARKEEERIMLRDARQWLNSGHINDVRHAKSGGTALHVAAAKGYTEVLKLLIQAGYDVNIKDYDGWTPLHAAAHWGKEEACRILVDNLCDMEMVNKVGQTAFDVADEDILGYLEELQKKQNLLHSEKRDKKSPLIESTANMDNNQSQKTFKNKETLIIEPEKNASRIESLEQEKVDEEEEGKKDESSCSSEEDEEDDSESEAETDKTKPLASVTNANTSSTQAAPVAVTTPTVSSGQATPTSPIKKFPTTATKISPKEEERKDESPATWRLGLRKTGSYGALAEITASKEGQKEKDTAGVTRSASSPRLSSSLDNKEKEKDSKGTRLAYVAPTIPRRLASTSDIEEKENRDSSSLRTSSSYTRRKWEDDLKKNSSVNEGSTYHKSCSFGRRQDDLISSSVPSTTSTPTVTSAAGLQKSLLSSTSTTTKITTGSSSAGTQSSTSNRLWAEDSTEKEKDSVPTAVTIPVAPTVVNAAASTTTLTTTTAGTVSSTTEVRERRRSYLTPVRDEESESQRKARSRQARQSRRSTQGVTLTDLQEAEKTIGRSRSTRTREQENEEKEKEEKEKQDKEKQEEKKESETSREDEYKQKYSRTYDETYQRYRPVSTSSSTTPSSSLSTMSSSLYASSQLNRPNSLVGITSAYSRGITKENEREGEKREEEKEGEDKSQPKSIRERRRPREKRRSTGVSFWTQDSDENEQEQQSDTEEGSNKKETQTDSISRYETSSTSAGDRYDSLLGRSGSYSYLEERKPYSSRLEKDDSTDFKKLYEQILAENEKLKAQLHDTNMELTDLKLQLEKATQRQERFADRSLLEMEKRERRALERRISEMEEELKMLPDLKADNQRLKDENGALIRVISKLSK
UniProt O00764: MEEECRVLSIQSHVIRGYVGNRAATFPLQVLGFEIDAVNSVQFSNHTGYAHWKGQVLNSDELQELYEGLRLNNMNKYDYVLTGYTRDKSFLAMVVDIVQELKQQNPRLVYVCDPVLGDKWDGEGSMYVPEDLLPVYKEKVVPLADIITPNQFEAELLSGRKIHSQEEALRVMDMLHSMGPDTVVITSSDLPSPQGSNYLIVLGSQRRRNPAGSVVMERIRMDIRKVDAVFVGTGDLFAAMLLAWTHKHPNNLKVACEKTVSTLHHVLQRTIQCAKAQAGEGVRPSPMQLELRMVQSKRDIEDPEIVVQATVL
UniProt Q6EEV4: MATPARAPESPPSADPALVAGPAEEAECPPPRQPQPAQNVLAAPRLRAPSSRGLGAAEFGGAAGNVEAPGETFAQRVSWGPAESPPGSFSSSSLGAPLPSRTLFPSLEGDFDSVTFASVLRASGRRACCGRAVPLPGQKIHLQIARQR
UniProt Q8TF05: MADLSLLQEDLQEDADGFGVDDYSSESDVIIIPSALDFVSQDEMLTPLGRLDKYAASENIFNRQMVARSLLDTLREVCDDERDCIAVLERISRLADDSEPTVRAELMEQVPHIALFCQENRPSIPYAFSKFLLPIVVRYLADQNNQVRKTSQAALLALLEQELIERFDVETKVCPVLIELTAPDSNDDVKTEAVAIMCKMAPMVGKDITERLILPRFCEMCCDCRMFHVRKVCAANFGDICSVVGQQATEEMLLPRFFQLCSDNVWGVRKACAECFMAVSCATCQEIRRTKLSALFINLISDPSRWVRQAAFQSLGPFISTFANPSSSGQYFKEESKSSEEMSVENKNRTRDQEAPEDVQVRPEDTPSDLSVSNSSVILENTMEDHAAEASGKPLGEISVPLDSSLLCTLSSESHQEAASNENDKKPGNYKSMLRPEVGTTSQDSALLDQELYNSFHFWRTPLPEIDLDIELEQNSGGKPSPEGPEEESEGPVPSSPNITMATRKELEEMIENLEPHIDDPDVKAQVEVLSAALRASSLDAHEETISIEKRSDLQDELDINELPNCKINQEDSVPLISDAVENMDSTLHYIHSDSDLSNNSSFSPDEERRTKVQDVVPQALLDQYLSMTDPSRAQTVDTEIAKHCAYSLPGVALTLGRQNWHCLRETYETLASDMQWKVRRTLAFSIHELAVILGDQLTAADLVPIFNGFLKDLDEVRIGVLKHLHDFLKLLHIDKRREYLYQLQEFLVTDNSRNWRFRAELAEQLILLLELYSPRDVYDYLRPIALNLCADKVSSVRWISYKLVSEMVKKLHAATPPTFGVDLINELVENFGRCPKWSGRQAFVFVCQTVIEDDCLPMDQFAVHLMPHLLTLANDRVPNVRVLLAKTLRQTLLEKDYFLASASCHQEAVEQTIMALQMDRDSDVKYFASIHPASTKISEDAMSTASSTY
UniProt Q9NR12, whole entry: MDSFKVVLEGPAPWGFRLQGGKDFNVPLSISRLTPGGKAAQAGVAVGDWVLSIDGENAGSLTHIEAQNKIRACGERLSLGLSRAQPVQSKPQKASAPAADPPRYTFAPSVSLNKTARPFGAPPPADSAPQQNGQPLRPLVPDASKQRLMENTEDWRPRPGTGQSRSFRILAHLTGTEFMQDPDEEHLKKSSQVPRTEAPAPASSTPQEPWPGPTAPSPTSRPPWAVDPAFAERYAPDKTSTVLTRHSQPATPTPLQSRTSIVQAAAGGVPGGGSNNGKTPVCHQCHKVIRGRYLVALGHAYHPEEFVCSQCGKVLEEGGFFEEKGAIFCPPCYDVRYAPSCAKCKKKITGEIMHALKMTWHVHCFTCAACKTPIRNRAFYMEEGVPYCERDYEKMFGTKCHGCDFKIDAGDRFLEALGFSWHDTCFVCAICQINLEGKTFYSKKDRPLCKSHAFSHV

The targets below were run with Nc1nc2c(ncn2[C@@H]2O[C@H](COP(=O)(O)OP(=O)(O)OP(=O)(O)O)[C@@H](O)[C@H]2O)c(=O)[nH]1 (assay: dose-dependent thermal stabilisation call (2D-TPP, DLPTP, 10% FDR) (binary (1 = stabilised)); higher = stabilised by the compound). Conditions: system: Jurkat gel-filtered lysate; concentration range 1-500 µM.
Protocol: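 2D thermal proteome profiling in gel-filtered Jurkat E6.1 lysate (2 mg/ml) treated with NaGTP (0, 1, 10, 100, 500 uM) for 10 min at room temperature, then heated 3 min at one of 12 temperatures (42-63.9 C). Soluble protein was quantified by TMT10 MS. The value is the DLPTP call of the paper: dose-dependent thermal stabilisation over all temperatures at 10% FDR (F-test of a dose-response against a flat model); one experiment, one call per tested protein.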

dose-dependent thermal stabilisation call, active:
POLR2B (UniProt P30876) 1
PIAS2 (UniProt O75928) 1
PFKP (UniProt Q01813) 1
PIK3C3 (UniProt Q8NEB9) 1
PES1 (UniProt O00541) 1
PCYT2 (UniProt Q99447) 1
PGK2 (UniProt P07205) 1
PLK1 (UniProt P53350) 1

dose-dependent thermal stabilisation call, inactive:
PLEKHA5 (UniProt Q9HAU0) 0
POP4 (UniProt O95707) 0
PNPT1 (UniProt Q8TCS8) 0
PNN (UniProt Q9H307) 0
PHF5A (UniProt Q7RTV0) 0
PKNOX1 (UniProt P55347) 0
PFDN1 (UniProt O60925) 0
PPP1CA (UniProt P62136) 0
PNISR (UniProt Q8TF01) 0
PEF1 (UniProt Q9UBV8) 0
PGLS (UniProt O95336) 0
PPP1R21 (UniProt Q6ZMI0) 0
PPFIBP1 (UniProt Q86W92) 0
PPP1R12A (UniProt O14974) 0
PPP1R7 (UniProt Q15435) 0
PPA2 (UniProt Q9H2U2) 0
PLEKHA2 (UniProt Q9HB19) 0
PLIN3 (UniProt O60664) 0
PECAM1 (UniProt P16284) 0
PKM (UniProt P14618) 0
PDIA5 (UniProt Q14554) 0
POLR3F (UniProt Q9H1D9) 0
PDXK (UniProt O00764) 0
PNP (UniProt P00491) 0
PPIB (UniProt P23284) 0
POLR2M (UniProt Q6EEV4) 0
PPP1R9B (UniProt Q96SB3) 0
PPP4R1 (UniProt Q8TF05) 0
PEX5 (UniProt P50542) 0
PBK (UniProt Q96KB5) 0
PDLIM7 (UniProt Q9NR12) 0
POLR3B (UniProt Q9NW08) 0

3 records drawn at random from those above, as already listed:
dose-dependent thermal stabilisation call, inactive:
PDLIM7 (UniProt Q9NR12) 0
PLIN3 (UniProt O60664) 0
PLEKHA5 (UniProt Q9HAU0) 0
